Paper PMC7326921
No constants are given. Whether binding was seen depends on the method and setting. Binding seen in cells or lysates may run through a third protein. Some entries that bind do so weakly or less than the wild type.

By UniProt entry, the sequences of proteins in these tests, tags left out. Where a name states a change or a piece, a line headed by the entry shows the natural chain unless it says otherwise.
UniProt P07737: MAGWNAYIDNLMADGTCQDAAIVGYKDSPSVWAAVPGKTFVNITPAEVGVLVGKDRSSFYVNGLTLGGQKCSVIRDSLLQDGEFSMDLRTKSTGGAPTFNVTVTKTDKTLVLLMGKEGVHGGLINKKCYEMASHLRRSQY
UniProt Q8IZP0: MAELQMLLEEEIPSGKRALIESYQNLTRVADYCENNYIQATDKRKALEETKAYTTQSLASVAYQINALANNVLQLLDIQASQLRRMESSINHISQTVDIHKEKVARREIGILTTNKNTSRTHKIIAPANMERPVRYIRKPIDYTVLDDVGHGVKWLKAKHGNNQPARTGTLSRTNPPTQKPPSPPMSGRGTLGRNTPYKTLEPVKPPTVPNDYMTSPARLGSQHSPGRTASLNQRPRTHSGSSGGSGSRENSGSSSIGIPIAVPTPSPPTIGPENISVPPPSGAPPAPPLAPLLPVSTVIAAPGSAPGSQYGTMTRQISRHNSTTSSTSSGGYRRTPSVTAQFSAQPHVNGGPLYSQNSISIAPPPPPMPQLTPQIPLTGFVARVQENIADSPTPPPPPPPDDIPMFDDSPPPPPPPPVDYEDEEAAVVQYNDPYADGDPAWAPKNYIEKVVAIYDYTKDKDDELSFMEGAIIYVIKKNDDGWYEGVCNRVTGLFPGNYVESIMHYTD
UniProt P05556: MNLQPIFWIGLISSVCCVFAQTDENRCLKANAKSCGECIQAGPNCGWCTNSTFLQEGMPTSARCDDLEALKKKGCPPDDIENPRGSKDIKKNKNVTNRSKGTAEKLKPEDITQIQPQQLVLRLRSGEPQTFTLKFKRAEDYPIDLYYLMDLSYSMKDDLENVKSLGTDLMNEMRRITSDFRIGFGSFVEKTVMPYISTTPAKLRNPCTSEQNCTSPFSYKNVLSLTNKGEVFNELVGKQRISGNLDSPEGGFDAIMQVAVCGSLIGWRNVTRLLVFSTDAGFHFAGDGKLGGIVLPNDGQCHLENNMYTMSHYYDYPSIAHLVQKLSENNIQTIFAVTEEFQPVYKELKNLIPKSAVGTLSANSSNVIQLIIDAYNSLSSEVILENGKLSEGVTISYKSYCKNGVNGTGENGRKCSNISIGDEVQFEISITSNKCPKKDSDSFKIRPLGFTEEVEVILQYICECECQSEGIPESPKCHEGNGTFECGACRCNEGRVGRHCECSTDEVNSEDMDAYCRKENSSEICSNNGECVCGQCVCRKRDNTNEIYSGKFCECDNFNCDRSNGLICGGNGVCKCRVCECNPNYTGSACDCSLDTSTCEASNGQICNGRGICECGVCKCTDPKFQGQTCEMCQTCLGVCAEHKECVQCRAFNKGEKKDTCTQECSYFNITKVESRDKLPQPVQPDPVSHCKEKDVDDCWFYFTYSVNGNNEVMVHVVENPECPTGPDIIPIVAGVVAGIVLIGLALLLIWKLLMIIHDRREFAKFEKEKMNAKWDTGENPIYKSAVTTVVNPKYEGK

Tests used:
[1] = target: profilin-1 (Pfn-1), endogenous (human (endogenous in HASM cells)) (UniProt P07737); experiment: co-IP; endogenous proteins in extracts of HASM cells; immunoprecipitated with Pfn-1 antibody and blotted for Abi1 and Pfn-1 (Fig. 2C), or Abi1 immunoprecipitates blotted for integrin β1 (Fig. 6B)
[2] = target: Abi1 (Abelson interactor 1), endogenous (human (endogenous in HASM cells)) (UniProt Q8IZP0); experiment: as above
[3] = target: EYFP-tagged full length Abi1 (Abelson interactor 1) (UniProt Q8IZP0); experiment: co-IP; EYFP-tagged FL Abi1 or ∆PP cotransfected into cells with Flag-Pfn-1; cell extracts immunoprecipitated with GFP antibody and blotted with GFP antibody and Flag antibody

## Abi1 (Abelson interactor 1), endogenous (from UniProt Q8IZP0 1-508)
[1]
  binding: binds

## Integrin β1, endogenous (from UniProt P05556 21-798) (receptor)
[2]
  binding: binds

## Flag-Pfn-1 (profilin-1) (from UniProt P07737 1-140)
[3]
  binding: binds
